# Assay results reported in the supplement of paper PMC8728848.
# This is one part of the list.
# B1: Lb MiSSP8 (Laccaria bicolor) (protein)
# chain: MYFHTLFACATLMLITTAHASPTVINSLDSRKADLNGDVEARHAADWRRDSDWRRDSDWRRDSDWRRDSD
# Experiments:
# Experiment in all cases: glycan array binding signal (z-score within array); higher = stronger binding
# Conditions in all cases: glycan notation: IUPAC condensed, linker removed
# [1] = target: Fuc(a1-2)Gal(b1-4)GlcNAc(b1-3)Gal(b1-4)GlcNAc(b1-3)Gal(b1-4)GlcNAc
# Procedure, shortened: (§1)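 Arrays were curated from the Consortium for Functional Glycomics database, 3228 in total, and kept only where the protein sequence was available. Binding is expressed as a within-array Z-score. This score was averaged across arrays of the same protein sequence at different concentrations or buffers and across linkers, and negative values can be read as non-binding.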
# [2] = target: Fuc(a1-2)Gal(b1-4)GlcNAc(b1-3)GalNAc
# Procedure, shortened: as §1
# [3] = target: Fuc(a1-2)Gal(b1-4)GlcNAc(b1-3)[Fuc(a1-2)Gal(b1-4)GlcNAc(b1-6)]GalNAc
# Procedure, shortened: as §1
# [4] = target: Fuc(a1-2)Gal(b1-4)GlcNAc(b1-3)[Fuc(a1-3)[Gal(b1-4)]GlcNAc(b1-6)]Gal(b1-4)Glc
# Procedure, shortened: as §1
# [5] = target: Fuc(a1-2)Gal(b1-4)GlcNAc(b1-6)GalNAc
# Procedure, shortened: as §1
# [6] = target: Fuc(a1-2)Gal(b1-4)GlcNAc6S
# Procedure, shortened: as §1
# [7] = target: Fuc(a1-2)Gal(b1-4)[Fuc(a1-3)]GlcNAc
# Procedure, shortened: as §1
# [8] = target: Fuc(a1-2)Gal(b1-4)[Fuc(a1-3)]GlcNAc(b1-2)Man(a1-3)[Fuc(a1-2)Gal(b1-4)[Fuc(a1-3)]GlcNAc(b1-2)Man(a1-6)]Man(b1-4)GlcNAc(b1-4)[Fuc(a1-6)]GlcNAc
# Procedure, shortened: as §1
# [9] = target: Fuc(a1-2)Gal(b1-4)[Fuc(a1-3)]GlcNAc(b1-2)[Fuc(a1-2)Gal(b1-4)[Fuc(a1-3)]GlcNAc(b1-4)]Man(a1-3)[Fuc(a1-2)Gal(b1-4)[Fuc(a1-3)]GlcNAc(b1-2)Man(a1-6)]Man(b1-4)GlcNAc(b1-4)GlcNAc
# Procedure, shortened: as §1
# [10] = target: Fuc(a1-2)Gal(b1-4)[Fuc(a1-3)]GlcNAc(b1-3)Gal(b1-4)[Fuc(a1-3)]GlcNAc
# Procedure, shortened: as §1
# [11] = target: Fuc(a1-2)Gal(b1-4)[Fuc(a1-3)]GlcNAc(b1-3)Gal(b1-4)[Fuc(a1-3)]GlcNAc(b1-3)Gal(b1-4)[Fuc(a1-3)]GlcNAc
# Procedure, shortened: as §1
# [12] = target: Fuc(a1-2)Gal(b1-4)[Fuc(a1-3)]GlcNAc(b1-3)GalNAc
# Procedure, shortened: as §1
# [13] = target: Fuc(a1-2)Gal(b1-4)[Fuc(a1-3)]GlcNAc(b1-3)[Neu5Ac(a2-6)Gal(b1-4)GlcNAc(b1-6)]Gal(b1-4)Glc
# Procedure, shortened: as §1
# [14] = target: Fuc(a1-2)Gal3S(b1-4)GlcNAc
# Procedure, shortened: as §1
# [15] = target: Fuc(a1-2)Gal6S(b1-3)GlcNAc
# Procedure, shortened: as §1
# [16] = target: Fuc(a1-2)Gal6S(b1-3)GlcNAc6S
# Procedure, shortened: as §1
# Fuc(a1-2)Gal6S(b1-4)Glc = target: Fuc(a1-2)Gal6S(b1-4)Glc
# Procedure, shortened: as §1
# [17] = target: Fuc(a1-2)Gal6S(b1-4)Glc6S
# Procedure, shortened: as §1
# Fuc(a1-2)[Gal(a1-3)]Gal = target: Fuc(a1-2)[Gal(a1-3)]Gal
# Procedure, shortened: as §1
# [18] = target: Fuc(a1-2)[Gal(a1-3)]Gal(b1-3)GalNAc
# Procedure, shortened: as §1
# [19] = target: Fuc(a1-2)[Gal(a1-3)]Gal(b1-3)GalNAc(b1-3)Gal(a1-4)Gal(b1-4)Glc
# Procedure, shortened: as §1
# [20] = target: Fuc(a1-2)[Gal(a1-3)]Gal(b1-3)GlcNAc
# Procedure, shortened: as §1
# [21] = target: Fuc(a1-2)[Gal(a1-3)]Gal(b1-3)GlcNAc(b1-2)Man(a1-3)[Fuc(a1-2)[Gal(a1-3)]Gal(b1-3)GlcNAc(b1-2)Man(a1-6)]Man(b1-4)GlcNAc(b1-4)GlcNAc
# Procedure, shortened: as §1
# [22] = target: Fuc(a1-2)[Gal(a1-3)]Gal(b1-3)GlcNAc(b1-2)Man(a1-3)[Fuc(a1-2)[Gal(a1-3)]Gal(b1-3)GlcNAc(b1-2)Man(a1-6)]Man(b1-4)GlcNAc(b1-4)[Fuc(a1-6)]GlcNAc
# Procedure, shortened: as §1
# [23] = target: Fuc(a1-2)[Gal(a1-3)]Gal(b1-3)GlcNAc(b1-3)GalNAc
# Procedure, shortened: as §1
# [24] = target: Fuc(a1-2)[Gal(a1-3)]Gal(b1-3)GlcNAc(b1-6)GalNAc
# Procedure, shortened: as §1
# [25] = target: Fuc(a1-2)[Gal(a1-3)]Gal(b1-4)Glc
# Procedure, shortened: as §1
# [26] = target: Fuc(a1-2)[Gal(a1-3)]Gal(b1-4)GlcNAc
# Procedure, shortened: as §1
# [27] = target: Fuc(a1-2)[Gal(a1-3)]Gal(b1-4)GlcNAc(b1-2)Man
# Procedure, shortened: as §1
# [28] = target: Fuc(a1-2)[Gal(a1-3)]Gal(b1-4)GlcNAc(b1-2)Man(a1-3)[Fuc(a1-2)[Gal(a1-3)]Gal(b1-4)GlcNAc(b1-2)Man(a1-6)]Man(b1-4)GlcNAc(b1-4)GlcNAc
# Procedure, shortened: as §1
binder,measurement,setting,value
B1,glycan array binding signal (z-score),[1],-0.613
same,glycan array binding signal (z-score),[2],0.464
same,glycan array binding signal (z-score),[3],-0.405
same,glycan array binding signal (z-score),[4],0.402
same,glycan array binding signal (z-score),[5],1.09
same,glycan array binding signal (z-score),[6],-0.302
same,glycan array binding signal (z-score),[7],-0.15
same,glycan array binding signal (z-score),[8],1.15
same,glycan array binding signal (z-score),[9],1.27
same,glycan array binding signal (z-score),[10],-0.399
same,glycan array binding signal (z-score),[11],-0.219
same,glycan array binding signal (z-score),[12],0.589
same,glycan array binding signal (z-score),[13],-0.578
same,glycan array binding signal (z-score),[14],-0.364
same,glycan array binding signal (z-score),[15],-0.316
same,glycan array binding signal (z-score),[16],0.941
same,glycan array binding signal (z-score),Fuc(a1-2)Gal6S(b1-4)Glc,-0.723
same,glycan array binding signal (z-score),[17],0.016
same,glycan array binding signal (z-score),Fuc(a1-2)[Gal(a1-3)]Gal,-0.474
same,glycan array binding signal (z-score),[18],0.371
same,glycan array binding signal (z-score),[19],-0.474
same,glycan array binding signal (z-score),[20],-0.499
same,glycan array binding signal (z-score),[21],-0.281
same,glycan array binding signal (z-score),[22],0.098
same,glycan array binding signal (z-score),[23],-0.626
same,glycan array binding signal (z-score),[24],-0.537
same,glycan array binding signal (z-score),[25],-0.357
same,glycan array binding signal (z-score),[26],-0.53
same,glycan array binding signal (z-score),[27],-0.04
same,glycan array binding signal (z-score),[28],-0.157

# Reprinted from the listing (2 entries):
binder,measurement,setting,value
B1,glycan array binding signal (z-score),[4],0.402
same,glycan array binding signal (z-score),[5],1.09
